Measured values: PubChem BioAssay AID463183 (Sanford-Burnham Center for Chemical Genomics, 2010)
The list shows a part of the results. Further columns of the screen follow, without active or inactive calls. The list favours compounds with an active or inconclusive main result.

assay: blockers of oleate-driven lipid droplets in liver cells – imaging, AML12 mouse hepatocytes, single concentration, high-content, confirmation (AID 463183); details: BODIPY lipid droplet imaging, measured here: cell count, cytotoxicity, at 5.2 µM, droplets induced with 100 µM oleic acid;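 also: cells counted after overnight compound exposure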

Row | Compound | cell count [cells]
1 | COc1ccc(CN(C)C(=O)CNC(=O)Cc2cccc3ccccc23)c(OC)c1OC | 1600
2 | COc1ccc(NC(=O)Nc2cccc3ccccc23)c(OC)c1 | 1590
3 | Cc1ccccc1OCC(=O)NCCCNC(=O)c1ccccn1 | 1620
4 | COc1ccc(C(C(=O)NC(C)(C)C)N(Cc2ccccc2)C(=O)CCC(=O)Nc2cc(C)on2)cc1 (centres undefined) | 1580
5 | CCn1c(=O)c2cc(C(=O)NCCC(C)C)sc2c2ccccc21 | 1680
6 | Cc1cc2nn(-c3ccc(Cl)cc3)nc2cc1N | 1620
7 | COc1ccccc1NS(=O)(=O)c1ccc(N/N=C/c2c(C)nn(-c3ccccc3)c2N2CCCC2)c([N+](=O)[O-])c1 | 1540
8 | C=C(C)C(=O)N1CC2(CC(c3cccc(NC(=O)/C=C\C=C/C)c3)=NO2)C[C@H]1C(N)=O (some centres undefined) | 1730
9 | CCc1ccc(NS(=O)(=O)c2cc3c(cc2C)n(C)c(=O)c(=O)n3C)cc1 | 1600
10 | COc1ccc(S(=O)(=O)N(c2onc(C)c2Cl)S(=O)(=O)c2ccc(OC)cc2)cc1 | 1620
11 | CCOC(=O)c1ccc(S(=O)(=O)Nc2ccc(N3CCOCC3)cc2)cc1 | 1620
12 | Cc1ccc(NC(=O)CN(C)S(=O)(=O)c2cccs2)c(Br)c1 | 1540
13 | c1ccc2nc(N3CCN(Cc4ccc5c(c4)OCO5)CC3)cnc2c1 | 1500
14 | CCCCc1ccc(NC(=O)CSc2nc3ncccc3[nH]2)cc1 | 1540
15 | O=C(Nc1cccc(S(=O)(=O)N2CCOCC2)c1)c1ccc(Cl)c([N+](=O)[O-])c1 | 1610
16 | C=CCSc1n[nH]c(-c2ccc(OCCCC)cc2)n1 | 1600
17 | COC(=O)c1ccc(NS(=O)(=O)c2ccc3c(c2)n(C)c(=O)n3C)cc1 | 1520
18 | CCOC(=O)C1CCN(C(=O)C2(NC(=O)Nc3ccccc3C)CCCCC2)CC1 | 1640
19 | CCOc1ccc(CCNC(=O)c2c(C)nn(-c3ccccc3)c2Cl)cc1OCC | 1580
20 | CC1CCN(C2=C(NS(=O)(=O)c3ccc(Br)cc3)C(=O)c3ccccc3C2=O)CC1 | 1510

Row | Compound | cell count [cells]
21 | CCOC(=O)C1CCN(S(=O)(=O)c2ccc3c(c2)NC(=O)C(C)C(=O)N3)CC1 (centres undefined) | 1600
22 | COc1ccc(F)cc1CN1CCN(c2ncnc3scc(-c4ccccc4)c23)CC1 | 1660
23 | CC(C)(C)c1cc(Br)c(O)c(N=Nc2ccc(S(=O)(=O)N3CCOCC3)cc2)c1 | 1550
24 | Oc1ccc(N=Nc2cccc(C(F)(F)F)c2)cc1C=Nc1ccc(N2CCOCC2)cc1 | 1580
25 | CCOc1ccc(C2=Nc3ccc(Br)cc3C(c3ccc(N4CCOCC4)cc3)=NN2)cc1 | 1600
26 | C=C(C)C1CC=C(C)/C(=N/Nc2ccccc2[N+](=O)[O-])C1 (centres undefined) | 1640
27 | CCOc1cc2[nH]c(=O)n(CCCC(=O)N(C)Cc3ccccc3)c(=O)c2cc1OCC | 1560
28 | COc1ccccc1Nc1ccc(NC(=O)c2cccc([N+](=O)[O-])c2C)cc1 | 1560
29 | COc1ccc(N(Cc2cc(=O)[nH]c3ccccc23)C(C)=O)cc1 | 1690
30 | Cc1cccc2sc(NC(=O)CN(C)S(=O)(=O)c3cccs3)nc12 | 1570
31 | Cc1oc2c(cc(NS(=O)(=O)c3cccs3)c3ccccc32)c1C(=O)OC(C)C | 1590
32 | O=C1CC(/C=C/c2ccccc2)(C(=O)NC2CCCC2)N1c1ccc(S(=O)(=O)N2CCCC2)cc1 (centres undefined) | 1630
33 | O=C(Nc1ccc(Cl)cc1C(=O)NCc1cccnc1)c1ccc(Cl)cc1Cl | 1510
34 | COc1ccc(-n2c(=O)c3ccccc3n(CC(=O)Nc3cc(C)on3)c2=O)cc1OC | 1630
35 | CCN1CCN(c2cc(C(C)C)nc3c(-c4ccccc4)c(C)nn23)CC1 | 1620
36 | Oc1c(N=Nc2ccc(F)cc2)ccc2ccccc12 | 1510
37 | CC(C)(C)c1cc(NC(=O)Nc2ccc(Cl)cc2Cl)no1 | 1660
38 | Cc1cc(NC(=O)c2cc3ccccc3o2)cc(C)c1OCC(=O)N1CCOCC1 | 1680
39 | COc1ccc(C(=O)OC(C)C(=O)Nc2cc(C(F)(F)F)ccc2Cl)c(OC)c1OC (centres undefined) | 1630

A run of entries from further up, as a working copy:
Row | Compound | cell count [cells]
8 | C=C(C)C(=O)N1CC2(CC(c3cccc(NC(=O)/C=C\C=C/C)c3)=NO2)C[C@H]1C(N)=O (some centres undefined) | 1730
9 | CCc1ccc(NS(=O)(=O)c2cc3c(cc2C)n(C)c(=O)c(=O)n3C)cc1 | 1600
10 | COc1ccc(S(=O)(=O)N(c2onc(C)c2Cl)S(=O)(=O)c2ccc(OC)cc2)cc1 | 1620
11 | CCOC(=O)c1ccc(S(=O)(=O)Nc2ccc(N3CCOCC3)cc2)cc1 | 1620
12 | Cc1ccc(NC(=O)CN(C)S(=O)(=O)c2cccs2)c(Br)c1 | 1540
13 | c1ccc2nc(N3CCN(Cc4ccc5c(c4)OCO5)CC3)cnc2c1 | 1500
14 | CCCCc1ccc(NC(=O)CSc2nc3ncccc3[nH]2)cc1 | 1540
15 | O=C(Nc1cccc(S(=O)(=O)N2CCOCC2)c1)c1ccc(Cl)c([N+](=O)[O-])c1 | 1610
16 | C=CCSc1n[nH]c(-c2ccc(OCCCC)cc2)n1 | 1600
17 | COC(=O)c1ccc(NS(=O)(=O)c2ccc3c(c2)n(C)c(=O)n3C)cc1 | 1520
